Data as given in doi:10.1101/724518.
Results are given in words; binding and its absence hold for the method and conditions named. Binding seen in cells or lysates may run through a third protein. Some binding calls cover weakened binding; strength is not graded here. Where a sequence is shown, tags or fusion partners need not be part of it.

T1: GUN1 fused to the C-terminal portion (YC) of the Venus protein (Arabidopsis thaliana) (UniProt Q9SIC9)
T1 sequence: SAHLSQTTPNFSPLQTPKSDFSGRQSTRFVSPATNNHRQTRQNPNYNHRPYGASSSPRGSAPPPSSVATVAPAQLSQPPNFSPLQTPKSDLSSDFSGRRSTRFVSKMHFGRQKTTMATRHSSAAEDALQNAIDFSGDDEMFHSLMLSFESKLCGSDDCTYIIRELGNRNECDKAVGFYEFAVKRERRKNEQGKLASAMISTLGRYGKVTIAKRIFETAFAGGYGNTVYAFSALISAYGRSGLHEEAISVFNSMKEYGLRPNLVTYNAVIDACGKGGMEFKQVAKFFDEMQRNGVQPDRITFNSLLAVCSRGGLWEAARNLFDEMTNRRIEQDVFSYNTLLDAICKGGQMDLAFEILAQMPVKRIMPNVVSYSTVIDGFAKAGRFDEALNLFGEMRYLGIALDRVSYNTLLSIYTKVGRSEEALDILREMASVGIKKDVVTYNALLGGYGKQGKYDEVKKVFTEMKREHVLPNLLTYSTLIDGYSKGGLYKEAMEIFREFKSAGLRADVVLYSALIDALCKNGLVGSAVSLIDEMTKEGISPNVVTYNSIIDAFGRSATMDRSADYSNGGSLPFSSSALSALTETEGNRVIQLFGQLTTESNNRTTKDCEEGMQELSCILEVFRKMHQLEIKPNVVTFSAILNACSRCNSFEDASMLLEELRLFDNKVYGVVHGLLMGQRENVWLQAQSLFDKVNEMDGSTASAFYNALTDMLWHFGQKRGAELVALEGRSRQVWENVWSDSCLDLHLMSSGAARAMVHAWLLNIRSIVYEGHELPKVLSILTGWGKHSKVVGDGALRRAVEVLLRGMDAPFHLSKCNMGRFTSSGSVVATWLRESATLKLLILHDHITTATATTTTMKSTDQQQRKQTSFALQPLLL

T2: GUN1 fused to the N-terminal portion (YN) of the Venus protein (Arabidopsis thaliana) (UniProt Q9SIC9)
T2 sequence: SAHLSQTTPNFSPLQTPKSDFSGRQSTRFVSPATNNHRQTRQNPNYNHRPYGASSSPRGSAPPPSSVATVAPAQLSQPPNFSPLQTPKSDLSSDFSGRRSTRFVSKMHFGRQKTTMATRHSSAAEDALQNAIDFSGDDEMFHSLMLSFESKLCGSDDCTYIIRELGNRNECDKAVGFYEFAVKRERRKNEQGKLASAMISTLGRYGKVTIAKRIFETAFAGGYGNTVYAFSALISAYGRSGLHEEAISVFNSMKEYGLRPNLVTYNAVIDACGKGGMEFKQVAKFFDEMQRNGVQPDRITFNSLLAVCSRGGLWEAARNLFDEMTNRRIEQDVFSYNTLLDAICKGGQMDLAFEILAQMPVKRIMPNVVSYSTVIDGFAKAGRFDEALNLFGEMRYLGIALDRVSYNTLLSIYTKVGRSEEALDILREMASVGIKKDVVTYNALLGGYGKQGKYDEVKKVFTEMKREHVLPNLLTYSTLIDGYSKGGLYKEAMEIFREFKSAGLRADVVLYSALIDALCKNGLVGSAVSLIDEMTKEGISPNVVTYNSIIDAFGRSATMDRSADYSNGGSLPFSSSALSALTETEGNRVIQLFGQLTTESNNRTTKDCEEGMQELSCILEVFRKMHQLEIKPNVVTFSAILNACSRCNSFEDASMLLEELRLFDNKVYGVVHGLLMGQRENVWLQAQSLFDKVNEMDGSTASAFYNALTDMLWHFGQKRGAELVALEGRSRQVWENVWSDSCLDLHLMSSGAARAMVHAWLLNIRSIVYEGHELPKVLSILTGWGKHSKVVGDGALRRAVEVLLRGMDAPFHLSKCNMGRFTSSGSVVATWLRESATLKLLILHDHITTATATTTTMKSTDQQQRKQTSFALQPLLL


Key:
[1] = target: T1, GUN1 fused to the C-terminal portion (YC) of the Venus protein (Arabidopsis thaliana); test: split reporter
[2] = target: T2, GUN1 fused to the N-terminal portion (YN) of the Venus protein (Arabidopsis thaliana); test: split reporter

Binder | binding [1] | binding [2]
RpoTp fused to the N-terminal portion (YN) of the Venus protein (enzyme, UniProt O24600 96-993) AGTIKGASLIEELENPVERNGLSGRRRLFMQDPPWISALFLKGLSKMVDQTLKIERKDIDKRKFDSLRRRQVKEETEAWERMVDEYRDLEKEMCEKNLAPNLPYVKHMFLGWFQPLKDVIEREQKLQKNKSKKVRAAYAPHIELLPADKMAVIVMHKMMGLVMSGHEDGCIQVVQAAVSIGIAIEQEVRIHNFLKRTRKNNAGDSQEELKEKQLLRKRVNSLIRRKRIIDALKVVKSEGTKPWGRATQAKLGSRLLELLIEAAYVQPPLTQSGDSIPEFRPAFRHRFKTVTKYPGSKLVRRYGVIECDSLLLAGLDKSAKHMLIPYVPMLVPPKRWKGYDKGGYLFLPSYIMRTHGSKKQQDALKDISHKTAHRVFEALDTLGNTKWRVNRNILDVVERLWADGGNIAGLVNREDVPIPEKPSSEDPEELQSWKWSARKANKINRERHSLRCDVELKLSVARKMKDEEGFYYPHNLDFRGRAYPMHPHLNHLSSDLCRGTLEFAEGRPLGKSGLHWLKIHLANLYAGGVEKLSHDARLAFVENHLDDIMDSAENPIHGKRWWLKAEDPFQCLAACVILTQALKSPSPYSVISHLPIHQDGSCNGLQHYAALGRDSFEAAAVNLVAGEKPADVYSEISRRVHEIMKKDSSKDPESNPTAALAKILITQVDRKLVKQTVMTSVYGVTYVGAREQIKRRLEEKGVITDERMLFAAACYSAKVTLAALGEIFEAARAIMSWLGDCAKIIASDNHPVRWITPLGLPVVQPYCRSERHLIRTSLQVLALQREGNTVDVRKQRTAFPPNFVHSLDGTHMMMTAVACREAGLNFAGVHDSYWTHACDVDTMNRILREKFVELYNTPILEDLLQSFQESYPNLVFPPVPKRGDFDLKEVLKSQYFFN | binds | 
RpoTp fused to the C-terminal portion (YC) of the Venus protein (enzyme, UniProt O24600 96-993) AGTIKGASLIEELENPVERNGLSGRRRLFMQDPPWISALFLKGLSKMVDQTLKIERKDIDKRKFDSLRRRQVKEETEAWERMVDEYRDLEKEMCEKNLAPNLPYVKHMFLGWFQPLKDVIEREQKLQKNKSKKVRAAYAPHIELLPADKMAVIVMHKMMGLVMSGHEDGCIQVVQAAVSIGIAIEQEVRIHNFLKRTRKNNAGDSQEELKEKQLLRKRVNSLIRRKRIIDALKVVKSEGTKPWGRATQAKLGSRLLELLIEAAYVQPPLTQSGDSIPEFRPAFRHRFKTVTKYPGSKLVRRYGVIECDSLLLAGLDKSAKHMLIPYVPMLVPPKRWKGYDKGGYLFLPSYIMRTHGSKKQQDALKDISHKTAHRVFEALDTLGNTKWRVNRNILDVVERLWADGGNIAGLVNREDVPIPEKPSSEDPEELQSWKWSARKANKINRERHSLRCDVELKLSVARKMKDEEGFYYPHNLDFRGRAYPMHPHLNHLSSDLCRGTLEFAEGRPLGKSGLHWLKIHLANLYAGGVEKLSHDARLAFVENHLDDIMDSAENPIHGKRWWLKAEDPFQCLAACVILTQALKSPSPYSVISHLPIHQDGSCNGLQHYAALGRDSFEAAAVNLVAGEKPADVYSEISRRVHEIMKKDSSKDPESNPTAALAKILITQVDRKLVKQTVMTSVYGVTYVGAREQIKRRLEEKGVITDERMLFAAACYSAKVTLAALGEIFEAARAIMSWLGDCAKIIASDNHPVRWITPLGLPVVQPYCRSERHLIRTSLQVLALQREGNTVDVRKQRTAFPPNFVHSLDGTHMMMTAVACREAGLNFAGVHDSYWTHACDVDTMNRILREKFVELYNTPILEDLLQSFQESYPNLVFPPVPKRGDFDLKEVLKSQYFFN |  | binds
